Results reported in paper PMC10470053, “Diverse p120RasGAP interactions with doubly phosphorylated partners EphB4, p190RhoGAP, and Dok1” (The Journal of Biological Chemistry, 2023).
Positions count from the first letter of the chain named. No constants are given. Whether binding was seen depends on the method and setting. Some results given as binding are weak or reduced against the parent protein; the word gives no strength.

T1: RasGAP^232 (p120RasGAP SH2-SH3-SH2 region, residues 174-444) (human)
T1 sequence: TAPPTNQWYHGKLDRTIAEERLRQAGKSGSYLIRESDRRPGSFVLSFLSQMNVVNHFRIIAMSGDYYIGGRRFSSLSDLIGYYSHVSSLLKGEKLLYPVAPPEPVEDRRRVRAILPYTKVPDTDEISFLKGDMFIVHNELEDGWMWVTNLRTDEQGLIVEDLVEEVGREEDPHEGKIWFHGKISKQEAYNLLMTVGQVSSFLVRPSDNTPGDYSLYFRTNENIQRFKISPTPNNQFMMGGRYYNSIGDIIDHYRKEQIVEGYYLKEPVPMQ

T2: RasGAP^232 (p120RasGAP N-SH2, SH3 and C-SH2 domains, residues 174-444) (human) (UniProt P20936)
T2 sequence: T1 sequence

T3: RasGAP^2(mut)32(mut) (RasGAP^232 with R207A and R398E/K400E) (human) (UniProt P20936)
T3 sequence: T1 sequence with R34A, R225E, K227E


Columns and labels:
[1] = biological target: T1, RasGAP^232 (p120RasGAP SH2-SH3-SH2 region, residues 174-444) (human); test: SEC-MALS; in-line SEC-MALS-SAXS, Superdex 200 Increase 10/300 GL; 0.5 mM peptide added to 0.1 mM RasGAP^232; 20 mM Tris pH 8, 350 mM NaCl, 1 mM DTT; 22 °C; both purified
[2] = biological target: T2, RasGAP^232 (p120RasGAP N-SH2, SH3 and C-SH2 domains, residues 174-444) (human); test: native gel or EMSA; 0.5 mM peptide added to 0.1 mM RasGAP^232, run over Superdex 75 into 20 mM Tris pH 8, 350 mM NaCl, 1 mM DTT; presence of peptide after elution confirmed by native gel shift; samples then used for SEC-MALS-SAXS; both purified
[3] = biological target: T3, RasGAP^2(mut)32(mut) (RasGAP^232 with R207A and R398E/K400E) (human); test: ITC; protein in the 190 ul sample cell, titrated 20 times with 2.5 ul peptide from the syringe; 20 mM Tris pH 8, 250 mM NaCl; Nano ITC (TA Instruments); independent binding model; both purified

binding [1] | Binder | other results
binds | SDYAEPMDAVVKPRNEEENIYSVPH (phosphotyrosine at 1087 and 1105; N-terminal acetylation; C-terminal amidation) [doubly phosphorylated p190RhoGAP-A peptide] | –
– | SDYAEPMDAVVKPRNEEENIYSVPH (phosphotyrosine at 1087 and 1105; N-terminal acetylation; C-terminal amidation) [doubly phosphorylated p190RhoGAP-A peptide (pY1087 and pY1105)] | binding [2]: binds
– | GTKVYIDPFTYEDPNEA (phosphotyrosine at 590 and 596; N-terminal acetylation; C-terminal amidation) [doubly phosphorylated EphB4 peptide (residues 586-602, pY590 and pY596)] | binding [3]: no binding
binds | GTKVYIDPFTYEDPNEA (phosphotyrosine at 590 and 596; N-terminal acetylation; C-terminal amidation) [doubly phosphorylated EphB4 peptide (residues 586-602)] | –
